Test results as given in article PMC3285579.
These are yes or no findings as the source states them, for the method shown.

T1: VAB-1 kinase region (669 aa-985 aa), wild type, two-hybrid bait (C. elegans) (UniProt O61460)
T1 sequence: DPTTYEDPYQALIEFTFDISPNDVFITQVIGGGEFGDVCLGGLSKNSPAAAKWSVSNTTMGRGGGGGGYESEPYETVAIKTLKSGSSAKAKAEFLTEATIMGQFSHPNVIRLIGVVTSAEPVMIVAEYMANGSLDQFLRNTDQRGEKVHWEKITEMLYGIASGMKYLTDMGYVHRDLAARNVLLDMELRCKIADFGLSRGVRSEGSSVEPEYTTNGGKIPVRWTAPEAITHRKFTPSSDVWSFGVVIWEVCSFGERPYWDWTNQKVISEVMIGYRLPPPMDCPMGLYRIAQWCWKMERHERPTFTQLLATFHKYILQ


Target: T1, VAB-1 kinase region (669 aa-985 aa), wild type, two-hybrid bait (C. elegans)
Assay: two-hybrid; directed assays: pGBKT7 bait, pGADT7 prey; beta-galactosidase activity measured qualitatively by X-GAL overlay

binding	Binder
no binding	ABL-1 SH2 domain, two-hybrid prey (domain or fragment, UniProt P03949 194-284) WYHGKISRSDSEAILGSGITGSFLVRESETSIGQYTISVRHDGRVFHYRINVDNTEKMFITQEVKFRTLGELVHHHSVHADGLICLLMYPA
no binding	VAV-1 SH2 domain, two-hybrid prey (domain or fragment, UniProt Q45FX5 831-925) WYMGEMERAKAESTLKGTPNGTFLVRYSKNRKQTAISLSYKNDVKHMIIEQNSDGKVYLDEDYIFNSTVELVQYYRSNNLIEIFAALDTCLKNPY
